This is a selection; strong and weak results do not stand in their true shares. Records with an inconclusive call do not appear. Calls of active or inactive are those of the source. The call rests on the fitted dose curve; in most records, active means well fitted activation curve with a large enough effect; inconclusive means small, poorly fitted or top-dose-only effect; inactive means no such curve, though single readings can be large or run the other way.
assay: A quantitative high throughput screen for small molecules that induce DNA re-replication in SW480 colon adenocarcinoma cells.; further: nearly all actives have a fitted effect of over 55% in size; conditions: Hoechst DNA content imaging, 48 h
Excerpt: H Molecular Libraries Probe Production Network [MLPCN] NIH Chemical Genomics Center [NCGC] MLPCN Grant: Fast Track K99 CA136555 Assay Provider: Melvin DePamphilis, NICHD, NIH Assay Overview Eukaryotic cells normally restrict genome duplication to once per cell division. When this process is aberrant, DNA re-replication occurs when cells reinitiate DNA replication before the first round of replication is complete. DNA re-replication induces the DNA damage response, arrests cell proliferation, and triggers apoptosis. The cell cycle components cyclin A, Cdt-1, Cdc6 and geminin are critical regulators of this process and their misregulation results in DNA re-replication in normal and cancer cells. To identify compounds that induce re-replication in normal cells, an image-based assay was used to measure DNA content of nuclei, as detected by the fluorescent DNA binding dye, Hoechst. Cell nuclei were imaged by a fluorescence scanning plate imager and compounds that induce DNA re-replication were identified by the increase of nuclei with elevated fluorescence intensity
For screening, 250 cells in 5 uL/well were dispensed into black clear 1536-well plates (Aurora) using a solenoid-based dispenser. Following transfer of 23 nL compound or DMSO vehicle by a pin tool, the plates were incubated 48 hr at 37 C and 5% CO2. After addition of 1 uL/well Hoescht stain, the plates were incubated 40 min at 37 C, 5% CO2 and total intensity of fluorescent objects (nuclei) were enumerated by an Acumen Explorer Ex3 (TTP LabTech) fluorescence scanning plate imager (405 nm excitation, 500-530 nm emission). Keywords: NIH Roadmap, MLPCN, MLI, MLSMR, qHTS, NCGC, DNA replication, cancer
Potency means the concentration at half of the fitted maximal effect.

Structure (SMILES) | Potency
COc1c(O)cc2c(c1OC)-c1ccc(OC)c(=O)cc1C(NC(C)=O)CC2 (stereo not drawn) | active: 0.231 µM
COc1cc2c(c(OC)c1OC)-c1ccc(SC)c(=O)cc1C(NC(C)=O)CC2 (stereo not drawn) | active: 0.013 µM
COc1c(O)cc2c(c1OC)-c1ccc(SC)c(=O)cc1C(NC(C)=O)CC2 (stereo not drawn) | active: 0.0259 µM

From PubChem BioAssay AID624297 (National Center for Advancing Translational Sciences (NCATS), 2012)
